Values of other authors in patent US10272056B2, “Treatment for mitochondrial diseases” (The George Washington University a Congressionally …, priority 2015, dated 2019).
At least one structure is not confirmed: it was looked up by name or label, or the drawing left a doubt.

Test system: mitochondrial encephalomyopathy mouse models
Details: PGC-1α agonist; cited from earlier work

## CC(C)(Oc1ccc(CCNC(=O)c2ccc(Cl)cc2)cc1)C(=O)O [bezafibrate]
  effect on the mitochondrial mass: limited effect
